PMC3762332

Sequences of proteins named here, by UniProt entry; tags and fusion partners are left off. A change or cut given only in a name is not applied to a line headed by its entry.
UniProt P17026: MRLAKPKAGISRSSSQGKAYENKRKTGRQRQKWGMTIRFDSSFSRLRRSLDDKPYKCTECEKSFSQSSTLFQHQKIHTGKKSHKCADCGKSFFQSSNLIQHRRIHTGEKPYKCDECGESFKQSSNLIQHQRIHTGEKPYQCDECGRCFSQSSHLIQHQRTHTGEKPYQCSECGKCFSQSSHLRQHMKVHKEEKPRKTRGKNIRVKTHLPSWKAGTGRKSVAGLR
UniProt Q8NC26: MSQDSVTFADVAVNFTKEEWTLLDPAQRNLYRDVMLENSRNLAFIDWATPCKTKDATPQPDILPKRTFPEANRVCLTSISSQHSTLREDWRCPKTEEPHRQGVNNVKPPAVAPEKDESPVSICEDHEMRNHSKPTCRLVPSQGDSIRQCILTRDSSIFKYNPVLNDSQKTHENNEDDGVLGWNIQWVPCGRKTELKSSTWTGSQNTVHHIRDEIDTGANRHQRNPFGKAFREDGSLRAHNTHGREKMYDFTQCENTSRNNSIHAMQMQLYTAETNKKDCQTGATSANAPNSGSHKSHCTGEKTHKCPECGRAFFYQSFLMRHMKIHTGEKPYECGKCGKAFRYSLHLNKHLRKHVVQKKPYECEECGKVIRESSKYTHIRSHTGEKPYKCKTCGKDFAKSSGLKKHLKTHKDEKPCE
UniProt P20719: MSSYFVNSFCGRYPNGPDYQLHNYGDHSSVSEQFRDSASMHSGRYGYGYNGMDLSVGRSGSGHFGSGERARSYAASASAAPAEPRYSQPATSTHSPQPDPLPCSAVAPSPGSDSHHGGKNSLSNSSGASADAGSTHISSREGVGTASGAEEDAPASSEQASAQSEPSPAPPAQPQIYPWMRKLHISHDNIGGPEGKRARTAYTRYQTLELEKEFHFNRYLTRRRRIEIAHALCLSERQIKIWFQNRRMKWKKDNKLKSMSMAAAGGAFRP
UniProt O00716: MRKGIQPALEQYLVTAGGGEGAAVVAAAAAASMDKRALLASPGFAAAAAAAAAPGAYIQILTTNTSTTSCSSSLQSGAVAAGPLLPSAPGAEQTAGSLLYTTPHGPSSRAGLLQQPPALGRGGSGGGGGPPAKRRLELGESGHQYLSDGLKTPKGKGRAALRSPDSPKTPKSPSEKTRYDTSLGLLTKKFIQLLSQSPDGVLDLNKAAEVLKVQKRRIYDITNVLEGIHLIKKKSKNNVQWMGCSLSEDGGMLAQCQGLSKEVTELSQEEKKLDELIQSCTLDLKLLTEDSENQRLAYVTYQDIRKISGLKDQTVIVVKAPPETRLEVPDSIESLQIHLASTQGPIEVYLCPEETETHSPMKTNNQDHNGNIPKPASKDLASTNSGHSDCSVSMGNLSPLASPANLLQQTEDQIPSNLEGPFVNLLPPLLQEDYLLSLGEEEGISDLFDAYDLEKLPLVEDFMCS
UniProt Q8IW36: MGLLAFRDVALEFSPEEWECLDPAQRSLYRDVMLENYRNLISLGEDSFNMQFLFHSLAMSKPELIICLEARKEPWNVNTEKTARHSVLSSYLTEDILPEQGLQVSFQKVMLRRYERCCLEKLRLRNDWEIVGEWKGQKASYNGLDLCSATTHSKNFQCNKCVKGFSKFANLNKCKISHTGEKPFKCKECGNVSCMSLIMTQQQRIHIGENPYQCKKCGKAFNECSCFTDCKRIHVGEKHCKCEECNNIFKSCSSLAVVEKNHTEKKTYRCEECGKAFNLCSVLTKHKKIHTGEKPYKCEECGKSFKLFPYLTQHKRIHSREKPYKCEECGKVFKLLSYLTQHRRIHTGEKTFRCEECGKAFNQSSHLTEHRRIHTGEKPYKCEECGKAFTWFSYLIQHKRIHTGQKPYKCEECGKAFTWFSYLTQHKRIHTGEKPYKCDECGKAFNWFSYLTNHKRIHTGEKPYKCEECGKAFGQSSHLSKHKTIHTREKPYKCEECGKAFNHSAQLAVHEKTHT
UniProt P43694: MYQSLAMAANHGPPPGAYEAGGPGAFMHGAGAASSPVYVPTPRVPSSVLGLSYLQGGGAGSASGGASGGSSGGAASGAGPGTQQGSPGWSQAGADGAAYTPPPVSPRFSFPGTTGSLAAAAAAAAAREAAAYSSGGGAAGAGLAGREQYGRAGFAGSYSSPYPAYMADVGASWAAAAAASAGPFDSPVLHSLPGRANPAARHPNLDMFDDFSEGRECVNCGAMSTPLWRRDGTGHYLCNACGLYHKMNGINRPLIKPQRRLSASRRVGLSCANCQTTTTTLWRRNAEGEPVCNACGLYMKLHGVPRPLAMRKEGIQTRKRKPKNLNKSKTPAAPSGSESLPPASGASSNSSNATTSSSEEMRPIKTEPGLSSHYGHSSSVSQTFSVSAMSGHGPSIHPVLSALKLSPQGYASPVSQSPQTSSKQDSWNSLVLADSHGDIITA
UniProt Q9BWM5: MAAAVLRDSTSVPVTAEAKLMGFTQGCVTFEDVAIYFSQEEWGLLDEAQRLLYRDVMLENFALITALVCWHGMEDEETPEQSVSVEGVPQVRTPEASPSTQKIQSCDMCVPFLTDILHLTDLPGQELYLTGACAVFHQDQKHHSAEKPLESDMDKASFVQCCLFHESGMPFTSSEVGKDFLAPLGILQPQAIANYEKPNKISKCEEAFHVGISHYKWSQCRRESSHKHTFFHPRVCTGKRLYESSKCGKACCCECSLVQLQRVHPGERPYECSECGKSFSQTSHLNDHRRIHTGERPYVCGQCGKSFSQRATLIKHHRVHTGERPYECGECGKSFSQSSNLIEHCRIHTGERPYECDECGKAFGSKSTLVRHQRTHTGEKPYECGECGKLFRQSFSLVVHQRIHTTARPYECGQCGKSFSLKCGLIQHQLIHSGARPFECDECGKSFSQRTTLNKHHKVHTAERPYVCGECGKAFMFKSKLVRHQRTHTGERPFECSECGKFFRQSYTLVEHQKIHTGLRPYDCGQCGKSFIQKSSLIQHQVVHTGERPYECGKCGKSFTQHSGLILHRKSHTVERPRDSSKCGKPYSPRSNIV
UniProt Q8TAF7: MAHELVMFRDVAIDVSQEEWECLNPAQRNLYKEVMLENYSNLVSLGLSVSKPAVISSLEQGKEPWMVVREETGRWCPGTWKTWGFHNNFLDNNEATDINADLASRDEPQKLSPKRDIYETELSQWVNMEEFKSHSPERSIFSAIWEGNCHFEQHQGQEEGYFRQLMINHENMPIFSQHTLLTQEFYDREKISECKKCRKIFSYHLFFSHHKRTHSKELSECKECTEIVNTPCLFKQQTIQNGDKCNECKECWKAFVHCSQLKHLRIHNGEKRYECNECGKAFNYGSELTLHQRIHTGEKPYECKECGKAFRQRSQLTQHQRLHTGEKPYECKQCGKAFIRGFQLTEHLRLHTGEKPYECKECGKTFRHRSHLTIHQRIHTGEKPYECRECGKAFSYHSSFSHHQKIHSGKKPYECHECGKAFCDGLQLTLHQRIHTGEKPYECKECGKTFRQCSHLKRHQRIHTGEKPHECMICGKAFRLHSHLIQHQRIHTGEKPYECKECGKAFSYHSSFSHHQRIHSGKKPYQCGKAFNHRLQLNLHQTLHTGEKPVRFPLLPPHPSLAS

Tests used:
Test in all cases: protein microarray
Details in all cases: 10-fold cold unmethylated competitor; 5mC at CpG (SssI, both strands); recombinant protein; protein details: GST (N-terminal); label: Cy5
[1] = target: ZNF22 (Homo sapiens) (UniProt P17026)
[2] = target: ZNF114 (Homo sapiens) (UniProt Q8NC26)
[3] = target: T1, ATF6B (Homo sapiens) (UniProt Q99941)
T1 sequence (looked up, limits assumed): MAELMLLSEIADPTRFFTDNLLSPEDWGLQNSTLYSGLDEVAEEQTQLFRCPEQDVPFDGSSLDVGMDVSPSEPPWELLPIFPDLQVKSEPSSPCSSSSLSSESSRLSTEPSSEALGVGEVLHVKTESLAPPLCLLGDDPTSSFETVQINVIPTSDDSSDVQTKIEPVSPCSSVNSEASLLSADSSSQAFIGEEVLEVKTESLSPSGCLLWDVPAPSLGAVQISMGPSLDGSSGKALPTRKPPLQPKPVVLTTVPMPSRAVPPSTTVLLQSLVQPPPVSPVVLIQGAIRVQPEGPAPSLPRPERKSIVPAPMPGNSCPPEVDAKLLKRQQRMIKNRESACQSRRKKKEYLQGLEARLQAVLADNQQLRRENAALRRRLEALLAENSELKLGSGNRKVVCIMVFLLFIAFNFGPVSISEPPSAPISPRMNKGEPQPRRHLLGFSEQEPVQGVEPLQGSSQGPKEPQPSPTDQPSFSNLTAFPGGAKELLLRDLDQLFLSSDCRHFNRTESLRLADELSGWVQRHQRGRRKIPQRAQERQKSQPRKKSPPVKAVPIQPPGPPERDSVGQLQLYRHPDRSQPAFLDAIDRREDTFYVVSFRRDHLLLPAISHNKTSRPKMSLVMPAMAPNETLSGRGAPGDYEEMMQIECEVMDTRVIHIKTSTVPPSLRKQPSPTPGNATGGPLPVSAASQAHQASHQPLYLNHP

[4] = target: HOXA5 (Homo sapiens) (UniProt P20719)
[5] = target: T2, FOXC1 (Homo sapiens) (UniProt Q12948)
T2 sequence (looked up, limits assumed): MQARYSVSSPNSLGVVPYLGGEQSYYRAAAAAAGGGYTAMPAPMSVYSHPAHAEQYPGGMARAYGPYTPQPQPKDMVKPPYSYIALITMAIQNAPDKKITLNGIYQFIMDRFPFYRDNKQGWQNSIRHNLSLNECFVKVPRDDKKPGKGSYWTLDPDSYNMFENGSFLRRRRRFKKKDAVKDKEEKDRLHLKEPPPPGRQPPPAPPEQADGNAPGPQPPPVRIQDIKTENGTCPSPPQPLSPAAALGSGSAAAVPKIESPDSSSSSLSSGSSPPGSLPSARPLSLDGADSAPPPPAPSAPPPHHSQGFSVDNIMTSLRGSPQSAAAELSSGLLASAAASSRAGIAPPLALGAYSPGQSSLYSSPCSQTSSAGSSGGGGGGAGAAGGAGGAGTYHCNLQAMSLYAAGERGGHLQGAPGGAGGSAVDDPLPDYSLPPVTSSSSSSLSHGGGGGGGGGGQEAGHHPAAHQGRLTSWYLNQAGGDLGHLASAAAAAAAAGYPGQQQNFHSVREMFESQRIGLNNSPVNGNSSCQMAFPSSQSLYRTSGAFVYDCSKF

[6] = target: T3, PMS1 (Homo sapiens) (UniProt P54277)
T3 sequence (looked up, limits assumed): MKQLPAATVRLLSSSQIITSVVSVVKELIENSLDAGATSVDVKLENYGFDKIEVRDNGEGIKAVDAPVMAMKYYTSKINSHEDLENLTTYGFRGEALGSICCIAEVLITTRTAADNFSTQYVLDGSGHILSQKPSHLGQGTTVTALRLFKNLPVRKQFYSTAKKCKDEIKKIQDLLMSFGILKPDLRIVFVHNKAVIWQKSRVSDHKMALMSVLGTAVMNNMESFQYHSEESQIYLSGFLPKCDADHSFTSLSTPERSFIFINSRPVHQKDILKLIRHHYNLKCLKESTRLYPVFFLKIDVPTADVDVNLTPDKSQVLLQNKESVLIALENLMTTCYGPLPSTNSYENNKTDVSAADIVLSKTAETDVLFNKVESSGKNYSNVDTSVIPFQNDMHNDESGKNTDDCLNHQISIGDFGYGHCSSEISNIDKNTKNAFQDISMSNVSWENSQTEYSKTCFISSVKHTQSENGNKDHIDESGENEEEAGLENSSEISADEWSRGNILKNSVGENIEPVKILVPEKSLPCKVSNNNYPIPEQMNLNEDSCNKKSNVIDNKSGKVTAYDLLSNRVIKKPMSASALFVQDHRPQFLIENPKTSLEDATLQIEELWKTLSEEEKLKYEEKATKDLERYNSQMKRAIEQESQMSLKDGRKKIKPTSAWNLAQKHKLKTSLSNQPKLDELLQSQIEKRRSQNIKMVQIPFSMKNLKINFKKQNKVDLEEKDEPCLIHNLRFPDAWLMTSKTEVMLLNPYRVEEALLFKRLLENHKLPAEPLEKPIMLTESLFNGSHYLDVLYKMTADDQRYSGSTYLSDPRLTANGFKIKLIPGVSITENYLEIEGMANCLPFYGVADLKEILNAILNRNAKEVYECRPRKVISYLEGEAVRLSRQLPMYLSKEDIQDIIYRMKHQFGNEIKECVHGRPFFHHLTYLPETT

[7] = target: E2F3 (Homo sapiens) (UniProt O00716)
[8] = target: T4, ZMYM3 (Homo sapiens) (UniProt Q14202)
T4 sequence (looked up, limits assumed): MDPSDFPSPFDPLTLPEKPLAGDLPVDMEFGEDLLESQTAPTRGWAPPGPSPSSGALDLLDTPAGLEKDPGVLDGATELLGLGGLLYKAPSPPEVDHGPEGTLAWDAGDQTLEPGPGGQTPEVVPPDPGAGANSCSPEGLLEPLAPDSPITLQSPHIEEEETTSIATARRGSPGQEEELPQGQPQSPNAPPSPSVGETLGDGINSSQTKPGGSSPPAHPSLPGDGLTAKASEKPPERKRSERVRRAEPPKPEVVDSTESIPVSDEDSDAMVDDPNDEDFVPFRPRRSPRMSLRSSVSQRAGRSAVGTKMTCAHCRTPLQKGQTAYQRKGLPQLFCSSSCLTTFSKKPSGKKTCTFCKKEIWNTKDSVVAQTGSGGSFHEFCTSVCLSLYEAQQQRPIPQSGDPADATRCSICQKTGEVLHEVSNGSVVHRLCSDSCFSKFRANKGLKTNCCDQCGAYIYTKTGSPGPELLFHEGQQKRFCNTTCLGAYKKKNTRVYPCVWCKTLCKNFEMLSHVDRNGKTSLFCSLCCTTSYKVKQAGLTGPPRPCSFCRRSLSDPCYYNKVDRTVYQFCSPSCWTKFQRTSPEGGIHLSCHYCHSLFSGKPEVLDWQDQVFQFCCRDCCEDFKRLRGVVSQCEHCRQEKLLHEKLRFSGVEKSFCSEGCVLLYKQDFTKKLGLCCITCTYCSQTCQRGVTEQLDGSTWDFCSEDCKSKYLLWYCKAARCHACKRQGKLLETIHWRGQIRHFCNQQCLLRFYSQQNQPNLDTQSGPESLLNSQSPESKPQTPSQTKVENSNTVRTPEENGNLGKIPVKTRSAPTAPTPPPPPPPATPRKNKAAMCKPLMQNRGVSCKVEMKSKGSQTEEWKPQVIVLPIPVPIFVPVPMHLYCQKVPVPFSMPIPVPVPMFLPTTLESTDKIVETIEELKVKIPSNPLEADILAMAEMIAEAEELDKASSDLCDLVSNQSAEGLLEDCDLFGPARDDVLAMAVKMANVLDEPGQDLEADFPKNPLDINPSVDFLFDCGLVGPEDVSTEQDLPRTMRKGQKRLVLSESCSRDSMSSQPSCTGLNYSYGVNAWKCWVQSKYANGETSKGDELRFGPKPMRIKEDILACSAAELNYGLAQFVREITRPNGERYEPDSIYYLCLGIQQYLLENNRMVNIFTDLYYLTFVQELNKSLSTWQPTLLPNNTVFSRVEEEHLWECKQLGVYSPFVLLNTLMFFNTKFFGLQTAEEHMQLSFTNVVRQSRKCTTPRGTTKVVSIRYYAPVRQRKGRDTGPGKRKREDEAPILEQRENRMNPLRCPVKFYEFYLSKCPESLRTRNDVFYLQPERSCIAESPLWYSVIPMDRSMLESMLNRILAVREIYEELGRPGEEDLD

[9] = target: ZNF695 (Homo sapiens) (UniProt Q8IW36)
[10] = target: GATA4 (Homo sapiens) (UniProt P43694)
[11] = target: ZNF416 (Homo sapiens) (UniProt Q9BWM5)
[12] = target: ZNF461 (Homo sapiens) (UniProt Q8TAF7)

Measured: binding result

AGCCCCGTTTAGCCCCGCCCTATAGTGAGTGCTATTA (double strand) [M299]
binds: [1] | [2] | [3]

CGGCCCGAAACGGCCCGCCCTATAGTGAGTGCTATTA (double strand) [M73]
binds: [4] | [2] | [5]

CGGCTCCTTTCGGCTCCCCCTATAGTGAGTGCTATTA (double strand) [M298]
binds: [1] | [2] | [3]

GTGACGTAAAGTGACGTCCCTATAGTGAGTGCTATTA (double strand) [M206]
binds: [6] | [7] | [8] | [9] | [10] | [11] | [2]

TGCGTGAGAAGAGGGTGCGTGAGAAGACCCTATAGTGAGTGCTATTA (double strand) [M10]
binds: [12] | [4] | [5]

The exact form of at least one protein or probe is not confirmed. For some of these results: Where a protein sequence is shown, tags need not be part of it.
